Data taken from article PMC6123492, “Structural and biochemical insights into small RNA 3′ end trimming by Arabidopsis SDN1”.
No constants are given. Whether binding was seen depends on the method and setting. Some binding calls cover weakened binding; strength is not graded here. Where a sequence is shown, tags or fusion partners need not be part of it.

How the values were obtained:
[1] = biological target: T1, MBP-tagged Arabidopsis AGO1 PAZ domain (Arabidopsis) (UniProt O04379); test: pull-down; as a1 but with RNase A treatment, to test whether the SDN1-AGO PAZ interaction depends on RNA; both purified
T1 sequence: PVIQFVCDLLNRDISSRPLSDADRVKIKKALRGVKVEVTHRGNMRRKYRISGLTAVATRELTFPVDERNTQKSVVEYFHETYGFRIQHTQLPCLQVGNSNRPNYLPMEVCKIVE

[2] = biological target: T2, MBP-tagged Arabidopsis AGO10 PAZ domain (Arabidopsis) (UniProt Q9XGW1); test: as above
T2 sequence: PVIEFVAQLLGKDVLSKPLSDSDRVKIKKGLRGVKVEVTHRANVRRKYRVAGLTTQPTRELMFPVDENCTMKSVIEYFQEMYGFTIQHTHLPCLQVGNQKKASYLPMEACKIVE

[3] = biological target: T1, MBP-tagged Arabidopsis AGO1 PAZ domain (Arabidopsis); test: pull-down; about 40 μg purified MBP-tagged AGO fragment or MBP alone mixed with 1 μg purified untagged SDN1, captured on dextrin beads, 4 °C overnight; 20 mM Tris-HCl pH 8.0, 100 mM NaCl, 0.1 mM MgCl2, 1 mM DTT, 5% glycerol, 0.2 mg/ml BSA; ten washes with 0.5% NP-40; SDN1 detected by western blot with anti-SDN1; both purified
[4] = biological target: T2, MBP-tagged Arabidopsis AGO10 PAZ domain (Arabidopsis); test: as above

Measured: binding

B1: Arabidopsis SDN1 (Small RNA Degrading Nuclease 1), recombinant, non-tagged (enzyme, UniProt A3KPE8 2-409)
chain: ELKLATAEKQVLDELVKLLQSRDLRGENGNWKEFLHVYDKNADSPSDPSRRSHEDLVQFLTTFKKKEDLQLLKCHANHLLIENLKQESQDEDTPEQMLVRLTVEHPSYSLDYSFKPYSEDWFVSDVGMKMKKVMESTNMVAVDCEMVLCEDGTEGLVRVGVVDRDLKVILDEFVKPNKPVVDYRTDITGITAEDIENASLSVVDIQETLQPFLSTGTILVGHSLNRDLEVLKIDHPKVIDTALVFKYPNTRKLRRPSLNNLCKSILGYEVRKTGVPHDCVHDASAAMKLALAVVEKRVDTTIKPSKEMLEVEKAKLFLHKIPNNVPSEELEQVLSGKFTLDVKQAKTQGRYYCAFALFHSSEDADQAFEHIDGIEMTDSLGLPQKVVIIKLSSGSRASIYVRKMVQDE
binds: all assays above
